PubChem BioAssay AID330 (DTP/NCI, 2004)
The list shows only some results of the screen, not a fair sample: it is rich in T/C values a quarter to a half above the control, in often repeated tests (any T/C) and in doses without a T/C. Further doses and runs are listed elsewhere. T/C is the treated group as % of the vehicle group. Some entries give survivors of the animals treated and no T/C: the source holds a T/C of zero for them, seemingly a mark for toxic or unscored doses. Some doses without a T/C left all or most animals alive at the check, yet need not have been tolerated: survival well below the control is almost never listed, so the zero probably covers shortened survival too. Survivors were counted at the toxicity check, usually on the fifth day, unless a day is given; later deaths do not show. Schedule codes are those of the source, taken here to give the interval after Q, in days (D) or hours (H), and the number of doses after X. Some doses were run more than once; the values are given in rising order. For survival time, this PubChem deposit counts one and a half times the control or more as active, and values a quarter to a half above the control carry no call in these data; other NCI protocols may use other cut-offs. Some T/C values are followed by the survivors on the day toxicity was checked, most often the fifth; without a count, all were alive then.

Tested on: P388 leukemia ip, CD2F1 mice, survival T/C
Test: NCI In Vivo Anticancer Drug Screen. Data for tumor model P388 Leukemia (intraperitoneal) in CD2F1 (CDF1) mice
Conditions: T/C endpoint: median survival time, higher T/C = longer survival
[1] = dose: 12.5 mg/kg/injection, schedule: Q01DX009 (ip), vehicle: saline with Tween-80
[2] = dose: 100.0 mg/kg/injection, schedule: Q01DX009 (ip), vehicle: Klucel (hydroxypropylcellulose) (HPC)
[3] = dose: 100.0 mg/kg/injection, schedule: Q01DX009 (ip), vehicle: saline with Tween-80
[4] = dose: 60.0 mg/kg/injection, schedule: Q01DX005 (ip), vehicle: saline with Tween-80
[5] = dose: 120.0 mg/kg/injection, schedule: Q01DX005 (ip), vehicle: saline with Tween-80
[6] = dose: 240.0 mg/kg/injection, schedule: Q01DX005 (ip), vehicle: saline with Tween-80
[7] = dose: 50.0 mg/kg/injection, schedule: Q01DX005 (ip), vehicle: saline with Tween-80
[8] = dose: 200.0 mg/kg/injection, schedule: Q01DX009 (ip), vehicle: saline with Tween-80

Q: With `[O-][n+]1c2ccccc2[n+]([O-])c2c(O)cccc21` as the compound, how does the T/C (dose: 12.5 mg/kg/injection, schedule: Q01DX009 (ip), vehicle: distilled water + Tween-80) read?
A: 127 % of control

Q: And the survivor count (dose: 50.0 mg/kg/injection, schedule: Q01DX009 (ip), vehicle: distilled water + Tween-80)?
A: 5 of 6

Q: What about the survivor count (dose: 100.0 mg/kg/injection, schedule: Q01DX009 (ip), vehicle: distilled water + Tween-80) of the same compound?
A: 6 of 6

Q: With `N#C[CH2][Sn]([I])([c]1ccccc1)[c]1ccccc1` as the compound, how does the T/C (dose: 0.78 mg/kg/injection, schedule: Q01DX009 (ip), vehicle: saline with Tween-80) read?
A: 128 % of control

Q: What about the T/C (dose: 1.56 mg/kg/injection, schedule: Q01DX009 (ip), vehicle: saline with Tween-80) of the same compound?
A: 134 % of control

Q: And the T/C (dose: 3.12 mg/kg/injection, schedule: Q01DX009 (ip), vehicle: saline with Tween-80)?
A: 144 % of control

Q: What about the T/C (dose: 3.13 mg/kg/injection, schedule: Q01DX009 (ip), vehicle: saline with Tween-80) of the same compound?
A: 144 % of control

Q: What about the survivor count (dose: 6.25 mg/kg/injection, schedule: Q01DX009 (ip), vehicle: saline with Tween-80) of the same compound?
A: 3 of 6 and 4 of 6

Q: And the survivor count [1]?
A: 0 of 6

Q: What about the survivor count (dose: 25.0 mg/kg/injection, schedule: Q01DX009 (ip), vehicle: saline with Tween-80) of the same compound?
A: 0 of 6

Q: What about the survivor count (dose: 50.0 mg/kg/injection, schedule: Q01DX009 (ip), vehicle: saline with Tween-80) of the same compound?
A: 0 of 6

Q: Which survivor count (dose: 400.0 mg/kg/injection, schedule: Q01DX001 (ip), vehicle: Klucel (hydroxypropylcellulose) (HPC)) does the source give for `O=C1CCSC(=S)N1N1CCN(N2C(=O)CCSC2=S)CC1` here?
A: 6 of 6

Q: `c1ccc(OP2(Oc3ccccc3)=NP(Oc3ccccc3)(Oc3ccccc3)=NP(Oc3ccccc3)(Oc3ccccc3)=NP(Oc3ccccc3)(Oc3ccccc3)=N2)cc1` was tested. Which survivor count (dose: 200.0 mg/kg/injection, schedule: Q01DX005 (ip), vehicle: Klucel (hydroxypropylcellulose) (HPC)) did it give?
A: 6 of 6

Q: With `COc1cc(NC(C)CCCN)c2ncccc2c1Sc1ccc(Cl)cc1` (configuration not stated) as the compound, how does the survivor count [1] read?
A: 5 of 6

Q: How did the T/C [2] turn out when `ClC(Cl)(Cl)C1=NCc2nnn(Cc3ccccc3)c2N1` was run?
A: 127 % of control

Q: And the T/C [3]?
A: 126 % of control

Q: For `CC1(CCl)COP(=O)(NN)OC1` (configuration not stated), which survivor count (dose: 240.0 mg/kg/injection, schedule: Q01DX005 (ip), vehicle: saline) is on record?
A: 4 of 6

Q: Which T/C (dose: 100.0 mg/kg/injection, schedule: Q04DX002 (ip), vehicle: saline) does the source give for `C/C(=C\c1cc2cc(C(=N)N)ccc2o1)c1cc2cc(C(=N)N)ccc2o1` here?
A: 137 % of control

Q: And the T/C (dose: 200.0 mg/kg/injection, schedule: Q04DX002 (ip), vehicle: saline)?
A: 144 % of control

Q: `C=C(CBr)C(=O)OCC` was tested. Which survivor count [4] did it give?
A: 0 of 6

Q: And the survivor count [5]?
A: 0 of 6

Q: And the survivor count [6]?
A: 0 of 6

Q: What does the source list for `COc1cc2c(c(OC)c1O)-c1ccc(SC)c(=O)cc1C(NC(C)=O)CC2` (configuration not stated)?
A: T/C (dose: 2.5 mg/kg/injection, schedule: Q01DX009 (ip), vehicle: saline): 135 % of control; T/C (dose: 5.0 mg/kg/injection, schedule: Q01DX009 (ip), vehicle: saline): 135 % of control; T/C (dose: 5.0 mg/kg/injection, schedule: Q01DX009 (ip), vehicle: water): 136 % of control; T/C (dose: 10.0 mg/kg/injection, schedule: Q01DX009 (ip), vehicle: saline): 136 % of control; T/C (dose: 10.0 mg/kg/injection, schedule: Q01DX009 (ip), vehicle: water): 148 % of control; T/C (dose: 20.0 mg/kg/injection, schedule: Q01DX009 (ip), vehicle: water): 139 % of control [5 of 6 alive]; survivor count (dose: 40.0 mg/kg/injection, schedule: Q01DX009 (ip), vehicle: water): 6 of 6

Q: With `CC(=O)N1CCc2ccccc2C1C1NCCc2ccccc21` (configuration not stated) as the compound, how does the survivor count (dose: 400.0 mg/kg/injection, schedule: Q04DX003 (ip), vehicle: Klucel (hydroxypropylcellulose) (HPC)) read?
A: 0 of 6

Q: Which results are given for `O=C(O)/C=N/NS(=O)(=O)c1ccc2ccccc2c1`?
A: T/C (dose: 12.5 mg/kg/injection, schedule: Q01DX009 (ip), vehicle: other): 135 and 136 % of control; T/C (dose: 25.0 mg/kg/injection, schedule: Q01DX009 (ip), vehicle: other): 144 and 146 % of control; survivor count (dose: 200.0 mg/kg/injection, schedule: Q01DX009 (ip), vehicle: other): 6 of 6; survivor count (dose: 400.0 mg/kg/injection, schedule: Q01DX009 (ip), vehicle: other): 0 of 6 and 4 of 6

Q: Which survivor count (dose: 400.0 mg/kg/injection, schedule: Q04DX003 (ip), vehicle: saline) does the source give for `[BH]n1cccn1.[CH3][Sn]([CH3])[N]=C=S` here?
A: 2 of 6

Q: `CCSc1ncnc2c1ncn2C1OC(CO)C(O)C1O` (configuration not stated) was tested. Which survivor count (dose: 400.0 mg/kg/injection, schedule: Q04DX003 (ip), vehicle: saline with Tween-80) did it give?
A: 3 of 6

Q: For `Cc1cccc(/N=C/c2ccccc2O)n1`, which survivor count (dose: 200.0 mg/kg/injection, schedule: Q01DX009 (ip), vehicle: Klucel (hydroxypropylcellulose) (HPC)) is on record?
A: 1 of 6

Q: Which results are given for `NC(CS)=NCC12CC3CC(CC(C3)C1)C2`?
A: survivor count [4]: 0 of 6; survivor count [5]: 0 of 6; survivor count [6]: 0 of 6

Q: With `N#CC1SC(C#N)C(c2ccc(Cl)cc2)OC1c1ccc(Cl)cc1` (configuration not stated) as the compound, how does the survivor count [7] read?
A: 6 of 6

Q: Which survivor count [7] does the source give for `Cc1c(N=Nc2cccc(F)c2)c(-c2ccccc2)nn1C(N)=S` here?
A: 1 of 5

Q: And the survivor count (dose: 100.0 mg/kg/injection, schedule: Q01DX005 (ip), vehicle: saline with Tween-80)?
A: 0 of 5

Q: What about the survivor count (dose: 200.0 mg/kg/injection, schedule: Q01DX005 (ip), vehicle: saline with Tween-80) of the same compound?
A: 0 of 5

Q: Which survivor count (dose: 400.0 mg/kg/injection, schedule: Q01DX009 (ip), vehicle: Klucel (hydroxypropylcellulose) (HPC)) does the source give for `Cc1coc2c1CC1(C)C(CCC(OC(=O)CC(C)C)C1C)C2=O` (configuration not stated) (tested in a mixture with another compound) here?
A: 0 of 6

Q: With `O/N=C/c1ccc(Cl)cc1Cl` as the compound, how does the survivor count (dose: 400.0 mg/kg/injection, schedule: Q01DX005 (ip), vehicle: saline with Tween-80) read?
A: 1 of 6

Q: `CCCCCCCCCCCC(=O)NCCCCCC(=O)NC1C(C)OC(Nc2ncnc3nc[nH]c23)C(O)C1O` (configuration not stated) was tested. Which survivor count (dose: 4.0 mg/kg/injection, schedule: Q01DX009 (ip), vehicle: distilled water + Tween-80) did it give?
A: 6 of 6

Q: And the T/C (dose: 16.0 mg/kg/injection, schedule: Q01DX009 (ip), vehicle: water)?
A: 128 % of control

Q: For `C=C1C2CCC3(CCC4C5(C)CCCC4(C=[N+](CCO)C5)C3C2)C1O` (configuration not stated), which survivor count (dose: 50.0 mg/kg/injection, schedule: Q01DX009 (ip), vehicle: Klucel (hydroxypropylcellulose) (HPC)) is on record?
A: 0 of 6

Q: What about the survivor count [2] of the same compound?
A: 0 of 6

Q: Which survivor count (dose: 240.0 mg/kg/injection, schedule: Q01DX005 (ip), vehicle: Klucel (hydroxypropylcellulose) (HPC)) does the source give for `O=C(CSC(SCC(=O)Nc1ccccc1)c1ccccc1)Nc1ccccc1` here?
A: 6 of 6

Q: How did the survivor count [4] turn out when `C[N+]1(CCC(/C=C/c2ccc([N+](=O)[O-])cc2)=N\O)CCOCC1` was run?
A: 0 of 6

Q: And the survivor count [5]?
A: 0 of 6

Q: What about the survivor count [6] of the same compound?
A: 0 of 6

Q: Which T/C (dose: 200.0 mg/kg/injection, schedule: Q01DX001 (ip), vehicle: water) does the source give for `O=NN(C(=O)NC1CC1)C1CC1` here?
A: 130 % of control

Q: And the survivor count (dose: 400.0 mg/kg/injection, schedule: Q01DX001 (ip), vehicle: water)?
A: 0 of 6

Q: Which T/C (dose: 0.39 mg/kg/injection, schedule: Q01DX009 (ip), vehicle: Klucel (hydroxypropylcellulose) (HPC)) does the source give for `COc1c(Br)c2c(c(OC)c1OC)-c1ccc(OC)c(=O)cc1C(NC(C)=O)CC2` (configuration not stated) here?
A: 133 % of control

Q: And the T/C (dose: 0.78 mg/kg/injection, schedule: Q01DX009 (ip), vehicle: Klucel (hydroxypropylcellulose) (HPC))?
A: 148 % of control

Q: What about the survivor count (dose: 6.25 mg/kg/injection, schedule: Q01DX009 (ip), vehicle: Klucel (hydroxypropylcellulose) (HPC)) of the same compound?
A: 3 of 5

Q: And the survivor count (dose: 12.5 mg/kg/injection, schedule: Q01DX009 (ip), vehicle: Klucel (hydroxypropylcellulose) (HPC))?
A: 0 of 5

Q: What about the survivor count (dose: 25.0 mg/kg/injection, schedule: Q01DX009 (ip), vehicle: Klucel (hydroxypropylcellulose) (HPC)) of the same compound?
A: 0 of 5

Q: `CN1CCN(c2c(C(=O)Nc3ccc([N+](=O)[O-])cc3)cc([N+](=O)[O-])cc2[N+](=O)[O-])CC1` was tested. Which survivor count [6] did it give?
A: 6 of 6

Q: How did the T/C (dose: 5.0 mg/kg/injection, schedule: Q01DX009 (ip), vehicle: saline with Tween-80) turn out when `CSc1cc(=O)n2c3ccccc3c3ccnc1c32` was run?
A: 141 % of control

Q: What about the T/C (dose: 10.0 mg/kg/injection, schedule: Q01DX009 (ip), vehicle: saline with Tween-80) of the same compound?
A: 144 % of control

Q: With `Cc1cc2ccccc2c2nncn12` as the compound, how does the survivor count [8] read?
A: 0 of 6

Q: What does the source list for `CB1NN=C(C)c2ccsc21`?
A: survivor count [3]: 6 of 6; survivor count [8]: 3 of 6
